This passage reports cell number change and AC50 results from PubChem BioAssay AID2685 (National Center for Advancing Translational Sciences (NCATS), 2010).

The test is described as follows: qHTS Assay for Lipid Storage Modulators in Drosophila S3 Cells.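 On cell number change: cells counted by Cell Tracker Red CMTPX staining in the red channel.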 The note with it: BODIPY lipid droplet fluorescence, 18-24 h; for cell number change: measured here: cell count max response, cells fed with added oleic acid. The method in brief: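 Laser-scanning cytometry quantifies lipid droplet accumulation (500–530 nm total intensity; droplet/cell object ratio) in oleic acid-fed (400 uM added) Drosophila S3 cells treated with a concentration series. 20 uM Triacsin C defined 100% inhibition.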
Background: Quantitative high-throughput screening tests each substance at several concentrations.

The mark [1] stands for this setting: measured here: lipid fluorescence (Fed channel) AC50, cells fed with added oleic acid.
Setting [2] is: measured here: cell number channel AC50, cells fed with added oleic acid.

The other results are listed elsewhere or left out. Shown are side measurements of this screen, not its main read-out; they come without a call. Compounds called inactive in the main read-out are mostly missing here. Words in brackets tell the shape of the fitted curve; partial curves, single points and poor fits give uncertain potencies.

Usually AC50 stands for the midpoint of the concentration-response curve, whichever way the signal moves. A lower AC50 goes with activity at low concentration. Turning to `O=C(O)CCNS(=O)(=O)c1ccccc1C(F)(F)F`, the cell number change was found to be 39.5%. Also, under setting [1], the AC50 is 0.092 µM [falling, full curve]. As for `COCCCNC(=O)c1ccc2c(=O)n(Cc3ccc4c(c3)OCO4)c(=S)[nH]c2c1`, the cell number change was -24%. The AC50 under setting [1] was 0.58 µM [rising, single point].

As for `CC(C)Cc1nnc(NC(=O)CCC(=O)N2CCOCC2)s1`, the cell number change turned out to be 2.35%. In addition, the AC50 under setting [1] is 20.6 µM [falling, partial curve].

On to `COc1ccc(-c2csc(NC(=O)CS(=O)(=O)c3ccccc3)n2)cc1`, for which the cell number change amounted to 51.9%. Further, under setting [2], the AC50 was 3.26 µM [rising, partial curve]. Under setting [1], the concentration at half-maximal activity (AC50) is 4.61 µM [rising, partial curve]. Take `Cc1cc(C(=O)CSc2nc3ccccc3o2)c(C)n1CC1CCCO1` (configuration not stated): the cell number change stood at 29.8%. Regarding `O=C(CN1CCOCC1)Nc1cc([N+](=O)[O-])ccc1Cl`, the cell number change was found to be 23.5%. Moreover, the AC50 under setting [1] is 20.6 µM [rising, single point]. Take `COc1cc(/C=N/NC(=S)NCc2ccccc2)ccc1OCC#N`: the cell number change was -2.69%. The AC50 under setting [1] is 2.31 µM [rising, partial curve]. Turning to `O=C1CCCN1CC(=O)N1CCCC(Nc2cccc(F)c2)C1` (configuration not stated), the cell number change was -9.41%. In addition, the AC50 under setting [2] is 6.51 µM [falling, single point]. Turning to `COc1ccc(-c2ccnc(-c3ccncc3)n2)cc1`, the cell number change was 12%. Moreover, the AC50 under setting [1] is 4.61 µM [rising, single point].

Consider `CC(=O)c1ccc(OCc2cc(C(=O)NC(C)c3cnn(C)c3)no2)cc1` (configuration not stated), for which the AC50 under setting [1] was 6.51 µM [falling, single point]. With `COc1ccc(OC)c(C(=O)Cn2cnc3ccccc3c2=O)c1`, the cell number change is -22.9%. On the same count and under the same terms, as for `O=C(CNc1cc(S(=O)(=O)N2CCOCC2)ccc1N1CCCC1)N1CCc2ccccc21`, the figure is 125%; as for `COc1cccc(NC(=O)Cn2c(=O)oc3ccccc32)c1`, 4.89%. Turning to `O=C(NCCO)c1ccc(Cl)c(Cl)c1`, under setting [1], the concentration at half-maximal activity (AC50) is 23.1 µM [falling, single point]. For the compound `CCc1nnc(NC(=O)C(C)Sc2ccccc2)s1` (configuration not stated), the cell number change worked out at 21.7%. Under setting [1], the half-maximal activity concentration (AC50) is 25.9 µM [rising, single point]. As for `COc1ccc(C(=O)Nc2ncccc2C)cc1S(=O)(=O)N1CCOCC1`, the cell number change was -21.1%. Further, the AC50 under setting [1] was 0.00461 µM [falling, full curve, poor fit]. For `Cc1ccc2occ(C3NC(C(=O)O)CS3)c(=O)c2c1` (configuration not stated), the cell number change was found to be 23.1%. Also, the AC50 under setting [1] is 23.1 µM [rising, single point]. Turning to `CCOC(=O)C(NC(C)=O)C(=O)Nc1ccc(C(C)C)cc1` (configuration not stated), the cell number change amounted to 36.8%. For the same compound, under setting [1], the AC50 is 0.058 µM [falling, full curve, poor fit]. Consider `CCCc1nc(-c2ccc(-c3ccc(F)cc3)cc2)no1`, for which the cell number change is -10.7%. Besides, under setting [1], the AC50 was 0.517 µM [falling, full curve, poor fit]. Take `Cc1nc(N2CCOCC2)c2cc(-c3ccccc3)sc2n1`: under setting [1], the AC50 is 16.4 µM [rising, partial curve].

As for `CN(CCC#N)C(=O)COC(=O)C1c2ccccc2Oc2ccccc21`, the cell number change amounted to 13%. Also, the AC50 under setting [1] was 6.51 µM [rising, single point]. With `Cc1ccc2c(c1)CCCN2C(=O)c1ccoc1C`, the cell number change was -4.75%. Under setting [1], the AC50 was 0.517 µM [falling, full curve].

As to `Cn1c(N)c(C(=O)COC(=O)CCC(=O)c2cccs2)c(=O)n(C)c1=O`, the cell number change was -8.5%. Also, the AC50 under setting [1] was 2.31 µM [rising, single point]. In the case of `Cc1nnc(SCC(=O)NCc2ccc3c(c2)OCO3)[nH]c1=O`, the cell number change was found to be 2.24%.

As to `COc1ccc(OCCCC(=O)NCCc2ccc(OC)c(OC)c2)cc1`, the AC50 reads like this: under setting [2], 2.06 µM [falling, partial curve, poor fit]; under setting [1], 0.651 µM [falling, full curve, poor fit]. `CS(=O)(=O)Nc1ccc(C(=O)NC2CC3CCC2C3)cc1` (configuration not stated): the cell number change came to 57.3%. For the same compound, the AC50 under setting [2] is 20.6 µM [rising, partial curve]. `NC(Cc1cccc2nsnc12)C(=O)O` (configuration not stated): the cell number change was 4.09%. Further, the half-maximal activity concentration (AC50) under setting [1] was 5.17 µM [falling, single point].

In the case of `COc1cc(OC)cc(C(=O)NNC(=O)CCCOc2ccccc2)c1`, the cell number change is -34.5%. In addition, under setting [2], the AC50 is 29.1 µM [falling, single point]. Also, under setting [1], the AC50 was 29.1 µM [falling, single point]. Regarding `COc1ccc2nc(C)cc(N3CC(C)OC(C)C3)c2c1` (configuration not stated), the cell number change was determined as 26.2%. In addition, the half-maximal activity concentration (AC50) under setting [1] is 0.116 µM [falling, partial curve, poor fit].

`CC1CCN(C(=O)c2[nH]cnc2C(=O)NCCCCCNC(=O)OC(C)(C)C)CC1`: the cell number change is 3.25%. Further, the AC50 under setting [1] was 1.03 µM [falling, full curve, poor fit].

In the case of `CN(C(=O)CSc1nnc(-c2cccnc2)o1)C1CCCCC1`, the cell number change was -0.501%. Further, under setting [1], the AC50 is 1.64 µM [falling, single point].

In the case of `COc1ccc(CCN2C(=S)N(C)C(=O)C2CC(=O)Nc2ccc(F)cc2)cc1` (configuration not stated), the cell number change worked out at 14.4%. For the same compound, under setting [2], the AC50 is 0.259 µM [rising, full curve, poor fit]. Further, under setting [1], the AC50 was 0.58 µM [falling, single point]. Consider `CC1CC(C)CN(CCCNC(=O)C2CCN(c3ncnc4c3sc3cccc(F)c34)CC2)C1` (configuration not stated), for which the cell number change stood at 18.6%. In addition, the AC50 under setting [1] was 29.1 µM [rising, single point]. Consider `COc1ccc(C)cc1NC(=O)c1ccc(N(C)S(C)(=O)=O)cc1`, for which the cell number change stood at 171%. Further, the half-maximal activity concentration (AC50) under setting [2] was 20.6 µM [rising, single point]. Besides, the AC50 under setting [1] is 5.17 µM [rising, single point]. Turning to `Cc1ccccc1Nc1scc(-c2ccc(Cl)cc2)[n+]1-c1ccccc1C`, the cell number change was -12.5%. For the same compound, the AC50 under setting [2] is 4.11 µM [rising, partial curve, poor fit]. Regarding `CC(=O)C1C(c2cccc(F)c2)NC(=O)NC1(O)C(F)(F)F` (configuration not stated), the cell number change was -23.7%. Also, the AC50 under setting [2] is 0.58 µM [falling, full curve, poor fit].

As for `CC1(C)Cc2c(sc3c2C(=O)N(c2ccccc2)C2=NCCN23)CS1`, the cell number change is -16.7%. Under setting [2], the AC50 is 0.164 µM [falling, full curve, poor fit]. Also, the AC50 under setting [1] was 4.61 µM [falling, single point].

On to `N#Cc1cc2c([nH]c1=O)CCCC2`, for which the cell number change was -6.53%. The AC50 under setting [1] is 4.11 µM [rising, full curve, poor fit].

Regarding `Fc1ccc(Oc2cnns2)cc1`, the cell number change was -60.9%. Take `CN(C)c1ccc2nc3c(=O)[nH]c(=O)nc-3n(CC(O)C(O)C(O)CO)c2c1` (configuration not stated): the cell number change was -88.9%. For the compound `COC(=O)C1=C(CN2CCN(C)CC2)NC(=O)NC1c1cc(C)ccc1C` (configuration not stated), the cell number change turned out to be 16%. Under setting [1], the AC50 is 3.26 µM [falling, partial curve].
